From the supplement of paper PMC10849652
Some of the results follow.

Protein sequences, listed by entry. Tags and fused reporters are not part of them. Lines headed by an entry give the natural chain unless they say otherwise; changes in a name come on top.
UniProt Q9NWH9: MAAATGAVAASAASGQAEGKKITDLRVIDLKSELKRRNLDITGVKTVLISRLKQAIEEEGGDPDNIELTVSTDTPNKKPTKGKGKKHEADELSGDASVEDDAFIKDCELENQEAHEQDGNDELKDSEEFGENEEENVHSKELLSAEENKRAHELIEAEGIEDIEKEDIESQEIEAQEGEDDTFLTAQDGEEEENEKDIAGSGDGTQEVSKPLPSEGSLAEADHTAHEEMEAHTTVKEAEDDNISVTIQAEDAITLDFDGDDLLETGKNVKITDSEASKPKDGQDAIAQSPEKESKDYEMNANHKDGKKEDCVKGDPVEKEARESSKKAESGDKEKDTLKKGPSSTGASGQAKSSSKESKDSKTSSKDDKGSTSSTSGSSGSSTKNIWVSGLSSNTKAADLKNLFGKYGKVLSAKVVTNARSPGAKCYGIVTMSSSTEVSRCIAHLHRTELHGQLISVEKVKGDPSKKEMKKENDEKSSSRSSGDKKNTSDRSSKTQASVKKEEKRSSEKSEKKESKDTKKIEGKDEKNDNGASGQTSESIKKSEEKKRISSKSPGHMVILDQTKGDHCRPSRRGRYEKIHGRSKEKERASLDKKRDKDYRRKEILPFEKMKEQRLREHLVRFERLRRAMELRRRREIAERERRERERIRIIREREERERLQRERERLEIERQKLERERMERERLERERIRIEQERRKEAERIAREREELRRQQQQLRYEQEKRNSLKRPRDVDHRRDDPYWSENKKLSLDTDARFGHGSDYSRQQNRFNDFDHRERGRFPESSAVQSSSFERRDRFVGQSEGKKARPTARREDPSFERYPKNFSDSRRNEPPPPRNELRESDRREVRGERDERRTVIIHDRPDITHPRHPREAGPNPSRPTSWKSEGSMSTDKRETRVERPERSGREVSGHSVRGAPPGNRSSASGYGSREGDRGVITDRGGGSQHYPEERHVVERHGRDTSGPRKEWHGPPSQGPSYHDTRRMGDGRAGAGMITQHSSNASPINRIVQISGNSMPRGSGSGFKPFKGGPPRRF

Legend:
Test in all cases: log2 fold change, soluble protein after heating vs DMSO (PISA); higher = thermal stabilisation; K562 lysate, 10 uM; active = over 0.2 and 3.5 SD of the protein, either way, in both replicates (recomputed)
erlotinib = compound: C#Cc1cccc(Nc2ncnc3cc(OCCOC)c(OCCOC)cc23)c1 [erlotinib]
Method in brief: (§1)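 Quantification was by TMTpro 16plex LC-MS/MS with equalised channel sums, applied to the supernatant after 21,000xg for 90 min. Samples were crude K562 extract at 1 mg/mL protein in PBS pH 7.4 with 1 mM MgCl2, treated with 10 μM compound for 30 min, heated for 3 min across 48°C-58°C, pooled and brought to 0.5% NP-40 at 4°C. Values are log-two fold changes in thermal stability relative to solvent controls, from duplicates.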

[1] = compound: C/C(=N\NC(=O)C1=CC(=CC=C1)S(=O)(=O)N2CCOCC2)/C3=C(C=CC(=C3)Cl)O
Method in brief: as §1

[2] = compound: C1=CC(=CC=C1C2=NC3=C(N2)C=C(C=C3)C(=O)N)OC4=CC=C(C=C4)Cl
Method in brief: as §1

[3] = compound: C1=CC2=C(C=CC(=C2)/C=C\3/C(=O)NC(=NCC4=CC=CS4)S3)N=C1
Method in brief: as §1

[4] = compound: C1=CC2=NC=CN=C2C=C1/C=C/3\C(=O)NC(=O)S3
Method in brief: as §1

[5] = compound: C1=CC=C(C=C1)C2=NC(=C(N2)C3=CC=NC=C3)C4=CC(=C(C=C4)Cl)O
Method in brief: as §1

[6] = compound: C1=CC=C2C(=C1)C3=NNC4=CC=CC(=C43)C2=O
Method in brief: as §1

[7] = compound: C1CCN(C1)C(=O)NC2=CC=CC(=C2)NC3=NC=C(C(=N3)NCCC4=CN=CN4)Br
Method in brief: as §1

[8] = compound: C1CN(CCC1(CC2=CC=C(C=C2)Cl)N)C3=NC=NC4=C3C=CN4
Method in brief: as §1

IRAK-1-4 Inhibitor I = compound: C1COCCN1CCN2C3=CC=CC=C3N=C2NC(=O)C4=CC(=CC=C4)[N+](=O)[O-] [IRAK-1-4 Inhibitor I]
Method in brief: as §1

ibrutinib = compound: C=CC(=O)N1CCC[C@@H](n2nc(-c3ccc(Oc4ccccc4)cc3)c3c(N)ncnc32)C1 [ibrutinib]
Method in brief: as §1

[9] = compound: CC(=O)c1cnc2ccc(-c3cc(Cl)c(O)c(Cl)c3)nc2c1N[C@H]1CC[C@H](CN(C)C)CC1
Method in brief: as §1

ralimetinib = compound: CC(C)(C)Cn1c(N)nc2ccc(-c3[nH]c(C(C)(C)C)nc3-c3ccc(F)cc3)nc21 [ralimetinib]
Method in brief: as §1

[10] = compound: CC(C)(O)CC(=O)NCCn1ccc2ncnc(Nc3ccc(Oc4cccc(C(F)(F)F)c4)c(Cl)c3)c21
Method in brief: as §1

[11] = compound: CC(C)C1=C2N=C(C=C(N2N=C1)NCC3=CC=CC=C3)NCCCCCCN
Method in brief: as §1

[12] = compound: CC1=C(C(CC(=O)N1)C2=CC=C(C=C2)C(F)(F)F)C(=O)NC3=C(C=C4C(=C3)C=NN4)F
Method in brief: as §1

[13] = compound: CC1=C(C2=C(C=C1)C(=O)C3=CC=CC=C3N2CCCN)C
Method in brief: as §1

[14] = compound: CC1=C(C=C(C=C1)NC(=O)C2=CC(=CC=C2)C(C)(C)C#N)NC3=CC4=C(C=C3)N=CN(C4=O)C
Method in brief: as §1

[15] = compound: CC1=C(C=C(C=C1)NC(=O)C2=CC(=CC=C2)N(C)C)NC(=O)C3=CC=C(C=C3)O
Method in brief: as §1

[16] = compound: CC1=CC=C(C=C1)SC2=C3C=C(SC3=CN=C2)C(=O)N
Method in brief: as §1

vemurafenib = compound: CCCS(=O)(=O)Nc1ccc(F)c(C(=O)c2c[nH]c3ncc(-c4ccc(Cl)cc4)cc23)c1F [vemurafenib]
Method in brief: as §1

[17] = compound: CCCS(=O)(=O)Nc1ccc(F)c(C(=O)c2c[nH]c3ncc(Cl)cc23)c1F
Method in brief: as §1

barasertib = compound: CCN(CCCOc1ccc2c(Nc3cc(CC(=O)Nc4cccc(F)c4)[nH]n3)ncnc2c1)CCOP(=O)(O)O [barasertib]
Method in brief: as §1

[18] = compound: CC[C@@H]1C(=O)N(C)c2cnc(Nc3ccc(C(=O)NC4CCN(C)CC4)cc3OC)nc2N1C1CCCC1
Method in brief: as §1

volasertib = compound: CC[C@@H]1C(=O)N(C)c2cnc(Nc3ccc(C(=O)N[C@H]4CC[C@H](N5CCN(CC6CC6)CC5)CC4)cc3OC)nc2N1C(C)C [volasertib]
Method in brief: as §1

[19] = compound: CCn1c(C(=O)N(C2CC2)C2CC2)cc2c3c(ncn3C)c(Nc3cc(C)n(C)n3)nc21
Method in brief: as §1

[20] = compound: CCn1cc(-c2ccnc3[nH]c(-c4cccc(CN(C)C)c4)cc23)c(-c2ccc(NC(=O)N(C)C)cc2)n1
Method in brief: as §1

[21] = compound: CN1CCC(CNc2ccc3ncc(-c4cccc(OC(F)(F)F)c4)n3n2)CC1
Method in brief: as §1

saracatinib = compound: CN1CCN(CCOc2cc(OC3CCOCC3)c3c(Nc4c(Cl)ccc5c4OCO5)ncnc3c2)CC1 [saracatinib]
Method in brief: as §1

sotrastaurin = compound: CN1CCN(c2nc(C3=C(c4c[nH]c5ccccc45)C(=O)NC3=O)c3ccccc3n2)CC1 [sotrastaurin]
Method in brief: as §1

alvocidib = compound: CN1CC[C@H](c2c(O)cc(O)c3c(=O)cc(-c4ccccc4Cl)oc23)[C@H](O)C1 [alvocidib]
Method in brief: as §1

Tubastatin A = compound: CN1CCc2c(c3ccccc3n2Cc2ccc(C(=O)NO)cc2)C1 [Tubastatin A]
Method in brief: as §1

[22] = compound: CNC(=O)C1=CC=CC=C1NC2=NC(=NC=C2Cl)NC3=C(C=C(C=C3)N4CCOCC4)OC
Method in brief: as §1

defactinib = compound: CNC(=O)c1ccc(Nc2ncc(C(F)(F)F)c(NCc3nccnc3N(C)S(C)(=O)=O)n2)cc1 [defactinib]
Method in brief: as §1

[23] = compound: CNc1nc(-c2ccc3c(N)n[nH]c3c2)cc(N2C[C@@H](C(=O)NC3CCCCC3)CC[C@H]2C)n1
Method in brief: as §1

encorafenib = compound: COC(=O)N[C@@H](C)CNc1nccc(-c2cn(C(C)C)nc2-c2cc(Cl)cc(NS(C)(=O)=O)c2F)n1 [encorafenib]
Method in brief: as §1

[24] = compound: COC(=O)[C@H](CCSC)NC(=O)C1=C(C=C(C=C1)NC[C@H](CS)N)C2=CC=CC=C2
Method in brief: as §1

alisertib = compound: COc1cc(Nc2ncc3c(n2)-c2ccc(Cl)cc2C(c2c(F)cccc2OC)=NC3)ccc1C(=O)O [alisertib]
Method in brief: as §1

[25] = compound: COc1cc2nc(-c3cc(F)ccc3O)nc(N[C@@H]3CNC[C@H]3C(C)(C)O)c2cc1OC
Method in brief: as §1

gefitinib = compound: COc1cc2ncnc(Nc3ccc(F)c(Cl)c3)c2cc1OCCCN1CCOCC1 [gefitinib]
Method in brief: as §1

lapatinib = compound: CS(=O)(=O)CCNCc1ccc(-c2ccc3ncnc(Nc4ccc(OCc5cccc(F)c5)c(Cl)c4)c3c2)o1 [lapatinib]
Method in brief: as §1

pictilisib = compound: CS(=O)(=O)N1CCN(Cc2cc3nc(-c4cccc5[nH]ncc45)nc(N4CCOCC4)c3s2)CC1 [pictilisib]
Method in brief: as §1

crizotinib = compound: C[C@@H](Oc1cc(-c2cnn(C3CCNCC3)c2)cnc1N)c1c(Cl)ccc(F)c1Cl [crizotinib]
Method in brief: as §1

[26] = compound: C[C@H](C1=CC=C(C=C1)C(=O)NC2=C3C=CNC3=NC=C2)N
Method in brief: as §1

duvelisib = compound: C[C@H](Nc1ncnc2nc[nH]c12)c1cc2cccc(Cl)c2c(=O)n1-c1ccccc1 [duvelisib]
Method in brief: as §1

gandotinib = compound: Cc1cc(Nc2cc(CN3CCOCC3)c3nc(C)c(Cc4ccc(Cl)cc4F)n3n2)n[nH]1 [gandotinib]
Method in brief: as §1

tozasertib = compound: Cc1cc(Nc2cc(N3CCN(C)CC3)nc(Sc3ccc(NC(=O)C4CC4)cc3)n2)n[nH]1 [tozasertib]
Method in brief: as §1

doramapimod = compound: Cc1ccc(-n2nc(C(C)(C)C)cc2NC(=O)Nc2ccc(OCCN3CCOCC3)c3ccccc23)cc1 [doramapimod]
Method in brief: as §1

bafetinib = compound: Cc1ccc(NC(=O)c2ccc(CN3CC[C@H](N(C)C)C3)c(C(F)(F)F)c2)cc1Nc1nccc(-c2cncnc2)n1 [bafetinib]
Method in brief: as §1

[27] = compound: Cc1cccc(CC(=O)N2CCc3c2ccc(-c2cn(C)c4ncnc(N)c24)c3F)n1
Method in brief: as §1

nilotinib = compound: Cc1cn(-c2cc(NC(=O)c3ccc(C)c(Nc4nccc(-c5cccnc5)n4)c3)cc(C(F)(F)F)c2)cn1 [nilotinib]
Method in brief: as §1

[28] = compound: Cc1nc(Nc2n[nH]c3c2CN(C(=O)N[C@H](CN(C)C)c2ccccc2)C3(C)C)c2sccc2n1
Method in brief: as §1

dasatinib = compound: Cc1nc(Nc2ncc(C(=O)Nc3c(C)cccc3Cl)s2)cc(N2CCN(CCO)CC2)n1 [dasatinib]
Method in brief: as §1

[29] = compound: Cc1ncc(-c2ccnc(Nc3ccc(S(C)(=O)=O)cc3)n2)n1C(C)C
Method in brief: as §1

[30] = compound: Cn1cc(-c2ccc3c(c2)CCN3C(=O)Cc2cccc(C(F)(F)F)c2)c2c(N)ncnc21
Method in brief: as §1

quisinostat = compound: Cn1cc(CNCC2CCN(c3ncc(C(=O)NO)cn3)CC2)c2ccccc21 [quisinostat]
Method in brief: as §1

tipifarnib = compound: Cn1cncc1[C@@](N)(c1ccc(Cl)cc1)c1ccc2c(c1)c(-c1cccc(Cl)c1)cc(=O)n2C [tipifarnib]
Method in brief: as §1

[31] = compound: NC(=O)Nc1cc(-c2cccc(F)c2)sc1C(=O)N[C@H]1CCCNC1
Method in brief: as §1

[32] = compound: NC(=O)c1cnc(N[C@@H]2CCCC[C@@H]2N)nc1Nc1cccc(-n2nccn2)c1
Method in brief: as §1

[33] = compound: NC1(c2ccc(-c3nc4ccn5c(=O)[nH]nc5c4cc3-c3ccccc3)cc2)CCC1
Method in brief: as §1

[34] = compound: NCC(=O)Nc1ccc(-n2nc(C(F)(F)F)cc2-c2ccc3c(ccc4ccccc43)c2)cc1
Method in brief: as §1

vorinostat = compound: O=C(CCCCCCC(=O)Nc1ccccc1)NO [vorinostat]
Method in brief: as §1

silmitasertib = compound: O=C(O)c1ccc2c(c1)nc(Nc1cccc(Cl)c1)c1ccncc12 [silmitasertib]
Method in brief: as §1

[35] = compound: O=C1NC(=O)C(c2cnc3ccccn23)=C1c1cn2c3c(cc(F)cc13)CN(C(=O)N1CCCCC1)CC2
Method in brief: as §1

entospletinib = compound: c1cn2cc(-c3ccc4cn[nH]c4c3)nc(Nc3ccc(N4CCOCC4)cc3)c2n1 [entospletinib]
Method in brief: as §1

Measured: log2 fold change

SLTM (UniProt Q9NWH9)
inactive: erlotinib -0.05 | [1] 0.123 | [2] 0.035 | [3] 0.009 | [4] -0.014 | [5] 0.004 | [6] -0.039 | [7] -0.027 | [8] 0.011 | IRAK-1-4 Inhibitor I -0.027 | ibrutinib -0.021 | [9] -0.032 | ralimetinib 0.02 | [10] -0.01 | [11] -0.048 | [12] -0.058 | [13] 0.052 | [14] -0.016 | [15] 0.008 | [16] 0.002 | vemurafenib -0.011 | [17] -0.002 | barasertib 0.011 | [18] 0.022 | volasertib -0.01 | [19] 0.031 | [20] -0.05 | [21] 0.022 | saracatinib -0.068 | sotrastaurin 0.038 | alvocidib -0.01 | Tubastatin A 0.025 | [22] -0.051 | defactinib 0.026 | [23] 0.026 | encorafenib 0.01 | [24] 0.06 | alisertib 0.033 | [25] -0.009 | gefitinib -0.026 | lapatinib -0.002 | pictilisib -0.002 | crizotinib 0.021 | [26] -0.041 | duvelisib 0.035 | gandotinib -0.017 | tozasertib 0.049 | doramapimod 0.041 | bafetinib -0.083 | [27] 0.077 | nilotinib 0.085 | [28] -0.123 | dasatinib 0.062 | [29] -0.056 | [30] -0.002 | quisinostat -0.004 | tipifarnib 0.028 | [31] -0.016 | [32] -0.017 | [33] -0.048 | [34] -0.03 | vorinostat -0.022 | silmitasertib 0.016 | [35] -0.048 | entospletinib -0.02
